Results are given in words; binding and its absence hold for the method and conditions named. Binding seen in cells or lysates may run through a third protein. Some results given as binding are weak or reduced against the parent protein; the word gives no strength.
Tests used:
[1] = target: flag-tagged steroid receptor coactivator-3 (SRC-3-3×flag), expressed in myeloma cells (human) (UniProt Q9Y6Q9); assay: co-IP; SRC-3-3×flag as bait, IP with M2-flag antibody (anti-FLAG M2 Affinity Gel), NP-40 lysis buffer (50 mM Tris-HCl pH 7.4, 150 mM NaCl), blots of endogenous partners; input 2% lysate
[2] = target: full-length SRC-3 (FL), expressed in HEK293T cells (human) (UniProt Q9Y6Q9); assay: co-IP; SRC-3 and NSD2 constructs (full length or domain deletions) co-expressed in HEK293T cells; IP with M2-flag antibody or HA antibody; NP-40 lysis buffer; input 2% whole lysate
[3] = target: steroid receptor coactivator-3 (SRC-3), endogenous in myeloma cells (human (endogenous in myeloma cells)) (UniProt Q9Y6Q9); assay: co-IP; endogenous proteins in myeloma cells without SI-2; IP with anti-SRC-3 antibody and protein G dynabeads, NP-40 lysis buffer; input 2% whole cell lysate
[4] = target: steroid receptor coactivator-3 (SRC-3), endogenous in myeloma cells (human (endogenous in myeloma cells)) (UniProt Q9Y6Q9); assay: proximity ligation; Duolink In Situ on fixed myeloma cells (wild type and bortezomib-resistant), mouse anti-NSD2 and rabbit anti-SRC-3 antibodies
[5] = target: steroid receptor coactivator-3 (SRC-3), endogenous in myeloma cells (human (endogenous in myeloma cells)) (UniProt Q9Y6Q9); assay: co-IP; endogenous proteins in myeloma cells treated with 25 nM SI-2 for 16 h; IP with anti-SRC-3 antibody; input 2% whole cell lysate

Protein sequences, listed by entry. Tags and fused reporters are not part of them.
UniProt Q9Y6Q9: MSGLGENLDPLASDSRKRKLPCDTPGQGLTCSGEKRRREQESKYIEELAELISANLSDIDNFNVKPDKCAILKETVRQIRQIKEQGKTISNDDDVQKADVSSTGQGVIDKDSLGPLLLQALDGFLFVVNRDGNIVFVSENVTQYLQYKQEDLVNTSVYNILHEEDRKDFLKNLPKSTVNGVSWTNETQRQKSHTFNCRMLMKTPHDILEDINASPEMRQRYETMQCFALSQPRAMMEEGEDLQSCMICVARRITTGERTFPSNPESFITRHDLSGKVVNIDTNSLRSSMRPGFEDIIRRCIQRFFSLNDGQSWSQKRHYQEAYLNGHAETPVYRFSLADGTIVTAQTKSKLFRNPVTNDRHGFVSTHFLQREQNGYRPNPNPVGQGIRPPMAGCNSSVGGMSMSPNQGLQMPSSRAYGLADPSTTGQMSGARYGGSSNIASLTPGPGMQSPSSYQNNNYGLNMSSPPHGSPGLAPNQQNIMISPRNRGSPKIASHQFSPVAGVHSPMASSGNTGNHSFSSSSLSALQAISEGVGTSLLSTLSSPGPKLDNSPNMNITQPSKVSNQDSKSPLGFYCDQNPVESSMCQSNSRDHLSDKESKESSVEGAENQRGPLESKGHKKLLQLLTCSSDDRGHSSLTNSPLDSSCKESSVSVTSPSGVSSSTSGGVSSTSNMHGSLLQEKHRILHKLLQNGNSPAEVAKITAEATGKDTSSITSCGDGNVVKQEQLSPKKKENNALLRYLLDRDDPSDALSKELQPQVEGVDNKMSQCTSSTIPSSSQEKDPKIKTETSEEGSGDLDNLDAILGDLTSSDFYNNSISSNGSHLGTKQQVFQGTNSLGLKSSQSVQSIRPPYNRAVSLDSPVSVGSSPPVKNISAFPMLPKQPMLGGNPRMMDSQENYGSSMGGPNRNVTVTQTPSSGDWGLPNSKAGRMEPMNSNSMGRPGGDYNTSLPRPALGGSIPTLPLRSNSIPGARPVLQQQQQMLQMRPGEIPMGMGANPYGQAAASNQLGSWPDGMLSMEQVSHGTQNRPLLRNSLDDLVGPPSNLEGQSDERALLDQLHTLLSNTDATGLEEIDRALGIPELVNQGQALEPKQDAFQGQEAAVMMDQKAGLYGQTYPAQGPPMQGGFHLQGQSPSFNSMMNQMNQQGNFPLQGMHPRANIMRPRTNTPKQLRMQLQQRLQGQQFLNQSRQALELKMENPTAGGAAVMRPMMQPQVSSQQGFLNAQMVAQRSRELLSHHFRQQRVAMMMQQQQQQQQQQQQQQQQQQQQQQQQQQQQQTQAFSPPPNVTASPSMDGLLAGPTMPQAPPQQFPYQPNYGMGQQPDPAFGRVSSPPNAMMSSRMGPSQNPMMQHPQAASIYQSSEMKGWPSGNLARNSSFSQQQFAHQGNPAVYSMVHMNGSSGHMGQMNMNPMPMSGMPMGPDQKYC
UniProt Q99873: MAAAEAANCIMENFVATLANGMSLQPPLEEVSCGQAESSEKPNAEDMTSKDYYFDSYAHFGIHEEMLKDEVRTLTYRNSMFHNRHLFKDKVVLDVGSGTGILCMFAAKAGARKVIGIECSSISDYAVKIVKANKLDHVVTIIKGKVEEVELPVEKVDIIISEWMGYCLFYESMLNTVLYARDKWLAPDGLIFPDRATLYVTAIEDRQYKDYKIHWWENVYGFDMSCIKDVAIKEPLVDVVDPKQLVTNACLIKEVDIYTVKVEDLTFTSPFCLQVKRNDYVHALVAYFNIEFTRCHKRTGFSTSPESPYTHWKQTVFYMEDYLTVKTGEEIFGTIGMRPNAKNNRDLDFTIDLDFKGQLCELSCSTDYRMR
UniProt O96028: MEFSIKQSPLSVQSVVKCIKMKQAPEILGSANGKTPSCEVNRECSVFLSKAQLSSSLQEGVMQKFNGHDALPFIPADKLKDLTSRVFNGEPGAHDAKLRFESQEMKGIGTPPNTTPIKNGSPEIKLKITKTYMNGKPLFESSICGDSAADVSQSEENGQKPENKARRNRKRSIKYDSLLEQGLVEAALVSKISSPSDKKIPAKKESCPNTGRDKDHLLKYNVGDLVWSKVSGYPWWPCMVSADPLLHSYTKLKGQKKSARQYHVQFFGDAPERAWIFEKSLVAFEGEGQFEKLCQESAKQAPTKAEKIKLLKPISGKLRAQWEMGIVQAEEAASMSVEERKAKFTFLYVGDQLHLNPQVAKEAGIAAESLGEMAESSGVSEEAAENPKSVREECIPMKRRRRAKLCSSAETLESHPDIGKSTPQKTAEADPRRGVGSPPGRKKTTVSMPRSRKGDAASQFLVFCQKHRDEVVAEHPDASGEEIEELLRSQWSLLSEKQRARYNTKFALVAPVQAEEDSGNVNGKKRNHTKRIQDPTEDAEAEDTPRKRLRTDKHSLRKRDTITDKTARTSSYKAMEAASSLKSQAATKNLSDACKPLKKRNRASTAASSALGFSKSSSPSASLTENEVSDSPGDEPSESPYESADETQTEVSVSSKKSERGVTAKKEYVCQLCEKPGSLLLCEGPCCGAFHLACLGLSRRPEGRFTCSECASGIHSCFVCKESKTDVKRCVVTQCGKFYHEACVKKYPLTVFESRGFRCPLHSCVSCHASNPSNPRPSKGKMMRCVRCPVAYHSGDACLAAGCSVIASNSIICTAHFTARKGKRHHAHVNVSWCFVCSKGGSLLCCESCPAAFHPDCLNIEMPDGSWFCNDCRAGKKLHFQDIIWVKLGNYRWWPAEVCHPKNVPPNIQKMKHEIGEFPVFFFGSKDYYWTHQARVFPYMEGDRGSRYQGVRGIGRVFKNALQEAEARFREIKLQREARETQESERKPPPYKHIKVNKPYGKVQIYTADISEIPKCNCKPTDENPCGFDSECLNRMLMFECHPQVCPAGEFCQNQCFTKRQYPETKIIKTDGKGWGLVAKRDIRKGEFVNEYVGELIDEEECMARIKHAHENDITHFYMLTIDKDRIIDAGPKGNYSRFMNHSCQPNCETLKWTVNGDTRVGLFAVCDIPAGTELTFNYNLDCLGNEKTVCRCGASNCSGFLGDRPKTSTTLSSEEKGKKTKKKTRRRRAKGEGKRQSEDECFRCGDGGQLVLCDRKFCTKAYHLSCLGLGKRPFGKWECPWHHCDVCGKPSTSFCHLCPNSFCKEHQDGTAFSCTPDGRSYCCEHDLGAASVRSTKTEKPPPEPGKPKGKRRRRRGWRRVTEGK
UniProt Q09472: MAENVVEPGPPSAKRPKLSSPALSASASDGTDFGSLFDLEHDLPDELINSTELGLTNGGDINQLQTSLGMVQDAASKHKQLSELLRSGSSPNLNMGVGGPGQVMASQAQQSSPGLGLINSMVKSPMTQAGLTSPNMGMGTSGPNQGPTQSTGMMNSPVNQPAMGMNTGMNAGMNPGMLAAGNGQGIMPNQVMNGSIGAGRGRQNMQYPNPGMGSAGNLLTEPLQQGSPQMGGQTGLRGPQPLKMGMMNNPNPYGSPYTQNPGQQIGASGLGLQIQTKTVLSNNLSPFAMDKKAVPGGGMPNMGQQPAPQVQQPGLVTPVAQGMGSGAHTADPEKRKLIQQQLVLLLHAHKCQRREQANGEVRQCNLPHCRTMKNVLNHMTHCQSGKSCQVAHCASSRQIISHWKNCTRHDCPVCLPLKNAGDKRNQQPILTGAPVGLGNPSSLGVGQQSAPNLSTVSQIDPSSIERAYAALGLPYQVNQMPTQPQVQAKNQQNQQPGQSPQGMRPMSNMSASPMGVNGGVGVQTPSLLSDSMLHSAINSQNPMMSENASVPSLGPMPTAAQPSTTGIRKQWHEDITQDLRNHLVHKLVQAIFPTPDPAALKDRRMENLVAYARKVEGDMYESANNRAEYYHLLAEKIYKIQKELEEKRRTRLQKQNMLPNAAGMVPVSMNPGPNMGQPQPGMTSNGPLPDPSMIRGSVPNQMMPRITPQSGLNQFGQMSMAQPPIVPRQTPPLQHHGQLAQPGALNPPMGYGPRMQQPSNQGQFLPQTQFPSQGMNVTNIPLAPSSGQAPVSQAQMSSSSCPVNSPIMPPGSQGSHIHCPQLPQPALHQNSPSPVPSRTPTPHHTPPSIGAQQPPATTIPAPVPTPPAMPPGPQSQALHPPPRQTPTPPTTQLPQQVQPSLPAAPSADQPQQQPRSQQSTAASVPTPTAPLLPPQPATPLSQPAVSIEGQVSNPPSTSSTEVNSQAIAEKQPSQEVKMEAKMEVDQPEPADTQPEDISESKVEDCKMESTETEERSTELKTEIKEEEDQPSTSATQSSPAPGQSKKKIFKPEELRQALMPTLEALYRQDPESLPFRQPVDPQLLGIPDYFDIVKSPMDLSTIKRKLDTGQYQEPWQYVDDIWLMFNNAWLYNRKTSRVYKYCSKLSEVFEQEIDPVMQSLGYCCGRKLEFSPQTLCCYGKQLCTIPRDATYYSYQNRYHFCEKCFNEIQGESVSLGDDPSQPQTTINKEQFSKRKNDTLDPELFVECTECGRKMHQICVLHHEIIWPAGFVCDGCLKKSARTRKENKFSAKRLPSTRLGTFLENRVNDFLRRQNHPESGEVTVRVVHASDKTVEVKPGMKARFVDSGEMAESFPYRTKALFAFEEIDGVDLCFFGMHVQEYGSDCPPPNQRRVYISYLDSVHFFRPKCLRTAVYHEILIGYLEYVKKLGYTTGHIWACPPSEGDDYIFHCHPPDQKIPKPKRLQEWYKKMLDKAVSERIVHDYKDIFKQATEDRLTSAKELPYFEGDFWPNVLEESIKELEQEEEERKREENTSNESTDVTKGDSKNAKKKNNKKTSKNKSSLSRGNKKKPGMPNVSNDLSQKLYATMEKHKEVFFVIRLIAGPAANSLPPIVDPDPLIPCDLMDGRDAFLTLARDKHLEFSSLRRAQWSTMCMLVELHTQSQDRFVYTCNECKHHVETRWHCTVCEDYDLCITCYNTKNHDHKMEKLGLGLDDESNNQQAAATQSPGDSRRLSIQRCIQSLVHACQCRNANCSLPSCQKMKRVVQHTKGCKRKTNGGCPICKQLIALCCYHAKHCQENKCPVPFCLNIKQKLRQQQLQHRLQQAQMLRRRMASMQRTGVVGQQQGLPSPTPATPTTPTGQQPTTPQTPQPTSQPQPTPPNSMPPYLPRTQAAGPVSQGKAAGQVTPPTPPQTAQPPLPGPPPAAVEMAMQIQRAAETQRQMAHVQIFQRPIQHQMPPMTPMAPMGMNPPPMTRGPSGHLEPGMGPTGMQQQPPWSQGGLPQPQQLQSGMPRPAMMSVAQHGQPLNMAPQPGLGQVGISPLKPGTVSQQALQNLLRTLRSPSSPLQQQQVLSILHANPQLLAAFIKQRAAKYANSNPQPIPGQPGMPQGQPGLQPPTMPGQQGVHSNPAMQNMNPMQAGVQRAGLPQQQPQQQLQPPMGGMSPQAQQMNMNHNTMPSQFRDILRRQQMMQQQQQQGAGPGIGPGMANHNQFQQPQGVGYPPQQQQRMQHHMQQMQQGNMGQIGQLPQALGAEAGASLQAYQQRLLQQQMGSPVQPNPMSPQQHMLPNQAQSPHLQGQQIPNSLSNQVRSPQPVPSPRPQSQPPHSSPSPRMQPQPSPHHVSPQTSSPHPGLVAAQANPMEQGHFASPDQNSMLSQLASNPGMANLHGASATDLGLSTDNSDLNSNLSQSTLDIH

| Substance | binding [1] | binding [2] | binding [3] | binding [4] | binding [5] |
| --- | --- | --- | --- | --- | --- |
| PRMT1, endogenous in myeloma cells (from UniProt Q99873 1-371) | binds | – | – | – | – |
| full-length NSD2 (FL), expressed in HEK293T cells (from UniProt O96028 1-1365) | – | binds | – | – | – |
| histone-lysine N-methyltransferase NSD2, endogenous in myeloma cells (from UniProt O96028 1-1365) | binds | – | binds | binds | binds weakly |
| p300, endogenous in myeloma cells (from UniProt Q09472 1-2414) | binds | – | – | – | – |
